In publication doi:10.1101/2022.11.10.516022:
Numbering of substitutions follows the chain as printed. Like-named read-outs stand apart in the source and are kept apart here. No constants are given. Whether binding was seen depends on the method and setting. In cells and extracts the contact can be indirect. Some entries that bind do so weakly or less than the wild type. For some assays here: Sequences can lack the tags named with a protein.

T1: Myc-tagged full-length Plin1 (F-Plin1) (UniProt Q8CGN5)
T1 sequence: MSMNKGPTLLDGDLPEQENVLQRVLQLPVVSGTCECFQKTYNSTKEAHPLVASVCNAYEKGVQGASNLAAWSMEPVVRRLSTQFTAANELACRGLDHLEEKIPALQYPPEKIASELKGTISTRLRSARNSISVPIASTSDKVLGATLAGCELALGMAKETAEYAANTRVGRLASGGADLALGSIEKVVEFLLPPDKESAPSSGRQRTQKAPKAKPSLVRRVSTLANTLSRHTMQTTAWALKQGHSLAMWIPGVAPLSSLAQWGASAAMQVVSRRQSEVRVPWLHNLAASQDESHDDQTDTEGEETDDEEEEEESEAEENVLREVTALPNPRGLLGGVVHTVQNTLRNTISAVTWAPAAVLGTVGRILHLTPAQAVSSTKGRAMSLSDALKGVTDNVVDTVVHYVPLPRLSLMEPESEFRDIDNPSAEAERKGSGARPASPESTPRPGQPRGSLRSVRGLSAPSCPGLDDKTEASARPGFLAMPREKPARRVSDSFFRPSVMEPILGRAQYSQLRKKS

T2: Plin1SD (Plin1 S81, S222, S276 mutated to aspartate) (UniProt Q8CGN5)
T2 sequence: T1 sequence with S81D, S222D, S276D

T3: Plin1 transfected into HEK293 cells (UniProt Q8CGN5)
T3 sequence: T1 sequence

T4: endogenous Perilipin 1 (Plin1) (mouse (endogenous in WAT and 3T3-L1 adipocytes)) (UniProt Q8CGN5)
T4 sequence: T1 sequence

B1: HSL transfected into HEK293 / 293FT cells (enzyme, UniProt P54310 1-759)
chain: MDLRTMTQSLVTLAEDNMAFFSSQGPGETARRLSNVFAGVREQALGLEPTLGQLLGVAHHFDLDTETPANGYRSLVHTARCCLAHLLHKSRYVASNRKSIFFRASHNLAELEAYLAALTQLRAMAYYAQRLLTINRPGVLFFEGDEGLTADFLQEYVTLHKGCFYGRCLGFQFTPAIRPFLQTLSIGLVSFGEHYKRNETGLSVTASSLFTGGRFAIDPELRGAEFERIIQNLDVHFWKAFWNITEIEVLSSLANMASTTVRVSRLLSLPPEAFEMPLTSDPRLTVTISPPLAHTGPAPVLARLISYDLREGQDSKVLNSLAKSEGPRLELRPRPHQAPRSRALVVHIHGGGFVAQTSKSHEPYLKNWAQELGVPIFSIDYSLAPEAPFPRALEECFFAYCWAVKHCDLLGSTGERICLAGDSAGGNLCITVSLRAAAYGVRVPDGIMAAYPVTTLQSSASPSRLLSLMDPLLPLSVLSKCVSAYSGTEAEDHFDSDQKALGVMGLVQRDTSLFLRDLRLGASSWLNSFLELSGRKPQKTTSPTAESVRPTESMRRSVSEAALAQPEGLLGTDTLKKLTIKDLSNSEPSDSPEMSQSMETLGPSTPSDVNFFLRPGNSQEEAEAKDEVRPMDGVPRVRAAFPEGFHPRRSSQGVLHMPLYTSPIVKNPFMSPLLAPDSMLKTLPPVHLVACALDPMLDDSVMFARRLRDLGQPVTLKVVEDLPHGFLSLAALCRETRQATEFCVQRIRLILTPPAAPLN
B2: endogenous hormone-sensitive lipase (HSL) (enzyme, UniProt P54310 1-759)
chain: B1 chain

Columns and labels:
Assay in all cases: co-IP
[1] = biological target: T1, Myc-tagged full-length Plin1 (F-Plin1)
[2] = biological target: T2, Plin1SD (Plin1 S81, S222, S276 mutated to aspartate)
[3] = biological target: T3, Plin1 transfected into HEK293 cells
[4] = biological target: T4, endogenous Perilipin 1 (Plin1) (mouse (endogenous in WAT and 3T3-L1 adipocytes))
[5] = biological target: T4, endogenous Perilipin 1 (Plin1) (mouse (endogenous in WAT and 3T3-L1 adipocytes)); remark: listed apart in the source

Binder	binding [1]	binding [2]	binding [3]	binding [4]	binding [5]
B1	binds	binds	binds		
B2				binds	binds
